The results in this text go back to patent publication US12048705B2, “Immunoablative therapies” (AVM Biotechnology, LLC, priority 2018, dated 2024).

This test has as its system peripheral blood lymphocytes. The test can be described thus: Repeat of Hinrichs dexamethasone dosing, peripheral blood lymphocytes by flow cytometry. It is filed as in vivo. Conditions: same dosing; vehicle 1153. The source says: Prior studies into the use of steroids to precondition a patient prior to ACT had shown this approach to be ineffective. […] In contrast, Hinrichs discloses that pretreatment with radiation did enhance ACT tumor killing. […] However, while Hinrichs reported 99% lymphodepletion, no enhancement of ACT tumor killing was observed. In contrast, Hinrichs observed that radiation does enhance ACT tumor killing. […] In contrast, CD3+T lymphocytes were reduced from 3370 to 2441 live events, only a non-significant 33% reduction. CD3+CD4+T lymphocytes were reduced from 1779 to 902 live events, only a non-significant 50% reduction. CD3+CD8_ T lymphocytes were reduced from 1318 to 1277 live events, only a non-significant 3% reduction. CD3+CD4+CD25+FoxP3+ Tregs were reduced from 198 to 70 live events, only a non-significant 65% reduction. And natural killer (NK) cells were reduced from 1153 to 958 live events, only a non-significant 17% reduction.

Consider `C[C@@H]1C[C@H]2[C@@H]3CCC4=CC(=O)C=C[C@]4(C)[C@@]3(F)[C@@H](O)C[C@]2(C)[C@@]1(O)C(=O)CO` [dexamethasone], for which the “natural killer (NK) cells, live events” value turned out to be 958 live events.
